Article PMC8384837
Numbering of substitutions follows the chain as printed. This is one part of the list. For part of these data: At the low end of the ranking the order means little. For part of these data: The source does not settle which construct or isoform was used.

Key:
Settings in all cases: yeast three-hybrid, YBZ-1, SC-Leu-His + 0.5 mM 3-AT, 4 days
[1] = biological target: T1, PUM1 PUF domain R1-QFR R2-VFQ R7-NPG S863Q + R864F + Q867R + N899V + Y900F + S1079N + N1080P + E1083G (UniProt Q14671)
T1 sequence: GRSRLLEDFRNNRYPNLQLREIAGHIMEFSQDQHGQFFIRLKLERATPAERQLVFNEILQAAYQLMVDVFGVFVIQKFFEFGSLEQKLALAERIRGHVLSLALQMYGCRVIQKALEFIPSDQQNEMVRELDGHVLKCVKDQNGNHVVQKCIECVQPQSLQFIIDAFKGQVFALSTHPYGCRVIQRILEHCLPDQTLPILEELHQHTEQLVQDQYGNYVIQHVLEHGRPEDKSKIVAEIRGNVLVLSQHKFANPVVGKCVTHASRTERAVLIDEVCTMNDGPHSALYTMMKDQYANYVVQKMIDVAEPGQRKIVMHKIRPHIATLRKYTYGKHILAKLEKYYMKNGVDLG

[2] = biological target: T2, PUM1 PUF domain R2-VFQ R3-THE R4-TFR N899V + Y900F + C935T + R936H + Q939E + N971T + H972F + Q975R (UniProt Q14671)
T2 sequence: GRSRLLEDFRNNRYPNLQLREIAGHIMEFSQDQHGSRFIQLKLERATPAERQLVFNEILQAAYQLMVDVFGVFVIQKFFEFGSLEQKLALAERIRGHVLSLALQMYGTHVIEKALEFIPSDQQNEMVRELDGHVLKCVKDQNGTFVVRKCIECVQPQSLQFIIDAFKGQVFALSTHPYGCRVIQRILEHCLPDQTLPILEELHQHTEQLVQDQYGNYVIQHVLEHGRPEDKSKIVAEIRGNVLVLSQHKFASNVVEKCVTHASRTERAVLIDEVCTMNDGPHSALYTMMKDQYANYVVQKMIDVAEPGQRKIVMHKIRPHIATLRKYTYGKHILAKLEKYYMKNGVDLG

[3] = biological target: T3, PUM1 PUF domain R3-THE R4-TFR C935T + R936H + Q939E + N971T + H972F + Q975R (UniProt Q14671)
T3 sequence: T2 sequence with V72N, F73Y

[4] = biological target: T4, PUM1 PUF domain R5-PHQ R6-SWD C1007P + R1008H + N1043S + Y1044W + Q1047D (UniProt Q14671)
T4 sequence: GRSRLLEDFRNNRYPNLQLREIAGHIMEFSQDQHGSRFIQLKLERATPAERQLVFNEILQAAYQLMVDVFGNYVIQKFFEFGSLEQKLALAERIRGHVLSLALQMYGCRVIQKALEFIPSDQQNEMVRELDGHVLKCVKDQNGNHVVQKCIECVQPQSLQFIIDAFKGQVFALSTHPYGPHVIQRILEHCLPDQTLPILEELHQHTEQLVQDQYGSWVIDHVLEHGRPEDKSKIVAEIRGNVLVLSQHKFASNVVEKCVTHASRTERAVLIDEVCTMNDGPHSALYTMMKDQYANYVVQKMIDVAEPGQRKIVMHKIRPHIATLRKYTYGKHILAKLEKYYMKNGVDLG

[5] = biological target: T5, PUM1 PUF domain R6-SWD R7-NPG N1043S + Y1044W + Q1047D + S1079N + N1080P + E1083G (UniProt Q14671)
T5 sequence: T4 sequence with P180C, H181R, S252N, N253P, E256G

[6] = biological target: T6, PUM1 PUF domain R6-SWD R7-NPG N1043S + Y1044W + Q1047D + S1079N + N1080P + E1083G (Homo sapiens) (UniProt Q14671)
T6 sequence: T4 sequence with P180C, H181R, S252N, N253P, E256G

| Sequence | binding signal (log2 enrichment (interaction score)) [1] | binding signal (log2 enrichment (interaction score)) [2] | binding signal (log2 enrichment (interaction score)) [3] | binding signal (log2 enrichment (interaction score)) [4] | binding signal (log2 enrichment (interaction score)) [5] | binding signal (log2 enrichment (interaction score)) [6] |
| --- | --- | --- | --- | --- | --- | --- |
| GGCUAGAACUAGUGGAUCCCCCGGCGCCCGGCGGCUCGAGCCCGGGUAAGUUAACAUAGUCUGCAUGCCGCCGGGCGCCAUGCCUGCAGGUCGACUCUAGAAAACAUG | < -7.26 | -6.01 | -8.86 | -8.2 | -2.18 | – |
| GGCUAGAACUAGUGGAUCCCCCGGCGCCCGGCGGCUCGAGCCCGGGUAAGUUCAAGUAGUCUGCAUGCCGCCGGGCGCCAUGCCUGCAGGUCGACUCUAGAAAACAUG | -6.3 | -6.1 | -7.32 | -7.79 | – | -1.51 |
| GGCUAGAACUAGUGGAUCCCCCGGCGCCCGGCGGCUCGAGCCCGGGUAAGUGUAAGCAGUCUGCAUGCCGCCGGGCGCCAUGCCUGCAGGUCGACUCUAGAAAACAUG | -5.85 | -5.82 | < -7.67 | -7.95 | – | – |
| GGCUAGAACUAGUGGAUCCCCCGGCGCCCGGCGGCUCGAGCCCGGGUAAGUGGAAGUCGUCUGCAUGCCGCCGGGCGCCAUGCCUGCAGGUCGACUCUAGAAAACAUG | -6.08 | -5.41 | -5.99 | < -7.47 | – | -0.71 |
| GGCUAGAACUAGUGGAUCCCCCGGCGCCCGGCGGCUCGAGCCCGGGUAAGUCGAAGCGGUCUGCAUGCCGCCGGGCGCCAUGCCUGCAGGUCGACUCUAGAAAACAUG | < -6.47 | -5.81 | -6.56 | < -6.6 | – | – |
| GGCUAGAACUAGUGGAUCCCCCGGCGCCCGGCGGCUCGAGCCCGGGUAAGUGUAAGUUGUCUGCAUGCCGCCGGGCGCCAUGCCUGCAGGUCGACUCUAGAAAACAUG | -5.24 | -6.05 | < -8.05 | – | < -2.45 | – |
| GGCUAGAACUAGUGGAUCCCCCGGCGCCCGGCGGCUCGAGCCCGGGUAAGACGAGAUAGUCUGCAUGCCGCCGGGCGCCAUGCCUGCAGGUCGACUCUAGAAAACAUG | -6.26 | -4.7 | < -6.84 | < -7.14 | – | – |
| GGCUAGAACUAGUGGAUCCCCCGGCGCCCGGCGGCUCGAGCCCGGGUAAGUUUACAUAGUCUGCAUGCCGCCGGGCGCCAUGCCUGCAGGUCGACUCUAGAAAACAUG | < -6.42 | -5.65 | -7.38 | < -7.31 | – | -1.5 |
| GGCUAGAACUAGUGGAUCCCCCGGCGCCCGGCGGCUCGAGCCCGGGUAAGCGUAAAUCGUCUGCAUGCCGCCGGGCGCCAUGCCUGCAGGUCGACUCUAGAAAACAUG | < -5.55 | -5.27 | -6.57 | -7.48 | – | – |
| GGCUAGAACUAGUGGAUCCCCCGGCGCCCGGCGGCUCGAGCCCGGGUAAGUGUAAGAUGUCUGCAUGCCGCCGGGCGCCAUGCCUGCAGGUCGACUCUAGAAAACAUG | -6.23 | -5.18 | -8.07 | < -7.12 | – | – |
| GGCUAGAACUAGUGGAUCCCCCGGCGCCCGGCGGCUCGAGCCCGGGUAAGUGGACGCAGUCUGCAUGCCGCCGGGCGCCAUGCCUGCAGGUCGACUCUAGAAAACAUG | -6.85 | -5.34 | -7.28 | -8.78 | – | -0.57 |
| GGCUAGAACUAGUGGAUCCCCCGGCGCCCGGCGGCUCGAGCCCGGGUAAGAGGAAGAAGUCUGCAUGCCGCCGGGCGCCAUGCCUGCAGGUCGACUCUAGAAAACAUG | -6.23 | -5.31 | -4.05 | < -7.54 | – | -1.63 |
| GGCUAGAACUAGUGGAUCCCCCGGCGCCCGGCGGCUCGAGCCCGGGUAAGUGGAAAUCGUCUGCAUGCCGCCGGGCGCCAUGCCUGCAGGUCGACUCUAGAAAACAUG | -5.3 | -5.46 | -6.83 | -6.78 | – | -1 |
| GGCUAGAACUAGUGGAUCCCCCGGCGCCCGGCGGCUCGAGCCCGGGUAAGUGUAAGACGUCUGCAUGCCGCCGGGCGCCAUGCCUGCAGGUCGACUCUAGAAAACAUG | -5.22 | -5.22 | -7.52 | -9.51 | – | -1.53 |
| GGCUAGAACUAGUGGAUCCCCCGGCGCCCGGCGGCUCGAGCCCGGGUAAGUCGAGGUAGUCUGCAUGCCGCCGGGCGCCAUGCCUGCAGGUCGACUCUAGAAAACAUG | -6.9 | -5.72 | < -6.27 | – | – | -1.15 |
| GGCUAGAACUAGUGGAUCCCCCGGCGCCCGGCGGCUCGAGCCCGGGUAAGCGGAAGAAGUCUGCAUGCCGCCGGGCGCCAUGCCUGCAGGUCGACUCUAGAAAACAUG | < -5.62 | -5.32 | < -6.14 | < -8.31 | – | – |
| GGCUAGAACUAGUGGAUCCCCCGGCGCCCGGCGGCUCGAGCCCGGGUAAGUGGACGUUGUCUGCAUGCCGCCGGGCGCCAUGCCUGCAGGUCGACUCUAGAAAACAUG | -6.38 | -4.94 | -7.96 | -8.4 | – | – |
| GGCUAGAACUAGUGGAUCCCCCGGCGCCCGGCGGCUCGAGCCCGGGUAAGUUUAAGUUGUCUGCAUGCCGCCGGGCGCCAUGCCUGCAGGUCGACUCUAGAAAACAUG | -6.4 | -4.64 | < -7.45 | < -8.24 | – | – |
| GGCUAGAACUAGUGGAUCCCCCGGCGCCCGGCGGCUCGAGCCCGGGUAAGUUUAGGAAGUCUGCAUGCCGCCGGGCGCCAUGCCUGCAGGUCGACUCUAGAAAACAUG | -5.71 | -5.97 | -6.43 | – | – | -1.86 |
| GGCUAGAACUAGUGGAUCCCCCGGCGCCCGGCGGCUCGAGCCCGGGUAAGGCUAAGUAGUCUGCAUGCCGCCGGGCGCCAUGCCUGCAGGUCGACUCUAGAAAACAUG | -5.38 | -5.28 | -6.55 | < -6.87 | – | – |
| GGCUAGAACUAGUGGAUCCCCCGGCGCCCGGCGGCUCGAGCCCGGGUAAGUUGAAGCAGUCUGCAUGCCGCCGGGCGCCAUGCCUGCAGGUCGACUCUAGAAAACAUG | -6 | -5.4 | -6.94 | -6.95 | – | -0.42 |
| GGCUAGAACUAGUGGAUCCCCCGGCGCCCGGCGGCUCGAGCCCGGGUAAGUUUACGUAGUCUGCAUGCCGCCGGGCGCCAUGCCUGCAGGUCGACUCUAGAAAACAUG | -5.73 | -4.15 | -4.4 | -8.4 | – | -0.76 |
| GGCUAGAACUAGUGGAUCCCCCGGCGCCCGGCGGCUCGAGCCCGGGUAAGUUGACAUAGUCUGCAUGCCGCCGGGCGCCAUGCCUGCAGGUCGACUCUAGAAAACAUG | -5.79 | -5.34 | -7.31 | -8.14 | – | -1.13 |
| GGCUAGAACUAGUGGAUCCCCCGGCGCCCGGCGGCUCGAGCCCGGGUAAGUGUAGAUUGUCUGCAUGCCGCCGGGCGCCAUGCCUGCAGGUCGACUCUAGAAAACAUG | -5.14 | -5.47 | -6.93 | < -7.14 | – | – |
| GGCUAGAACUAGUGGAUCCCCCGGCGCCCGGCGGCUCGAGCCCGGGUAAGUGCGCACAGUCUGCAUGCCGCCGGGCGCCAUGCCUGCAGGUCGACUCUAGAAAACAUG | -6.13 | -5.72 | -6.89 | < -8.48 | – | – |
| GGCUAGAACUAGUGGAUCCCCCGGCGCCCGGCGGCUCGAGCCCGGGUAAGUAGAAGUUGUCUGCAUGCCGCCGGGCGCCAUGCCUGCAGGUCGACUCUAGAAAACAUG | -5.89 | -5.4 | -7.22 | -7.92 | – | – |
| GGCUAGAACUAGUGGAUCCCCCGGCGCCCGGCGGCUCGAGCCCGGGUAAGUAUAAAUAGUCUGCAUGCCGCCGGGCGCCAUGCCUGCAGGUCGACUCUAGAAAACAUG | -4.28 | -4.78 | -5.87 | -7.6 | – | -0.74 |

An excerpt from above, reduced to binding signal (log2 enrichment (interaction score)) [1].

| Sequence | binding signal (log2 enrichment (interaction score)) [1] |
| --- | --- |
| GGCUAGAACUAGUGGAUCCCCCGGCGCCCGGCGGCUCGAGCCCGGGUAAGCGUAAAUCGUCUGCAUGCCGCCGGGCGCCAUGCCUGCAGGUCGACUCUAGAAAACAUG | < -5.55 |
| GGCUAGAACUAGUGGAUCCCCCGGCGCCCGGCGGCUCGAGCCCGGGUAAGUGUAAGAUGUCUGCAUGCCGCCGGGCGCCAUGCCUGCAGGUCGACUCUAGAAAACAUG | -6.23 |
